Reference: the supplement of paper PMC12067093, “Discovery and optimisation of a covalent ligand for TRIM25 and its application to targeted protein ubiquitination” (Chemical Science, 2025)
This is one part of the list.

Amino acid sequences for entries named in this document (tags omitted). A change or cut given only in a name is not applied to a line headed by its entry.
UniProt O95479: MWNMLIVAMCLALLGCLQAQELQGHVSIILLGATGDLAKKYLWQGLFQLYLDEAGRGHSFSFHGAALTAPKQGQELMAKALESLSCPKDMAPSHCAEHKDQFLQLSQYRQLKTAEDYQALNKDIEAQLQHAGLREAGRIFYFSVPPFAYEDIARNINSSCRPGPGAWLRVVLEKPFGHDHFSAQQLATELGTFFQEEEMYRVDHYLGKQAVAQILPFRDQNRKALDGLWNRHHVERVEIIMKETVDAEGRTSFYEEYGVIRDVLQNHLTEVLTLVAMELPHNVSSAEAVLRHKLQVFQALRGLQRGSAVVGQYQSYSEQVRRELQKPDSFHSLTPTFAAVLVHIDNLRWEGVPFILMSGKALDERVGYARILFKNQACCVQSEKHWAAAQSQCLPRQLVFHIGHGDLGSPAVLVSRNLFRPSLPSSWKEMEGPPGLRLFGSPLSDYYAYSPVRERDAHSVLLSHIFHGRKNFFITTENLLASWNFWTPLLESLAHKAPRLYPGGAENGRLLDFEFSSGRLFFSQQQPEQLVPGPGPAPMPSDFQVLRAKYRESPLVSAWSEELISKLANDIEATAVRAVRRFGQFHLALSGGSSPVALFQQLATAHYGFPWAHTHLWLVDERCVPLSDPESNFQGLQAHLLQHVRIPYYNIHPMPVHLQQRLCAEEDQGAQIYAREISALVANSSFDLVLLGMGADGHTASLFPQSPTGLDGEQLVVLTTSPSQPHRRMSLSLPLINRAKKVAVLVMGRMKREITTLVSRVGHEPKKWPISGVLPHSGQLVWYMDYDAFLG
UniProt P07203, whole entry, looked up: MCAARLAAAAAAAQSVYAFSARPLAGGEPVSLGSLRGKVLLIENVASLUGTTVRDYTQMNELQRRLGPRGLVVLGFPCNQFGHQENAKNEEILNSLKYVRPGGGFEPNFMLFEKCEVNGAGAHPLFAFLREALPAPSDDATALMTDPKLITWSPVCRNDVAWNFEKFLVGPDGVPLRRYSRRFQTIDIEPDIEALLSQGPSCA
UniProt Q9Y5Q8: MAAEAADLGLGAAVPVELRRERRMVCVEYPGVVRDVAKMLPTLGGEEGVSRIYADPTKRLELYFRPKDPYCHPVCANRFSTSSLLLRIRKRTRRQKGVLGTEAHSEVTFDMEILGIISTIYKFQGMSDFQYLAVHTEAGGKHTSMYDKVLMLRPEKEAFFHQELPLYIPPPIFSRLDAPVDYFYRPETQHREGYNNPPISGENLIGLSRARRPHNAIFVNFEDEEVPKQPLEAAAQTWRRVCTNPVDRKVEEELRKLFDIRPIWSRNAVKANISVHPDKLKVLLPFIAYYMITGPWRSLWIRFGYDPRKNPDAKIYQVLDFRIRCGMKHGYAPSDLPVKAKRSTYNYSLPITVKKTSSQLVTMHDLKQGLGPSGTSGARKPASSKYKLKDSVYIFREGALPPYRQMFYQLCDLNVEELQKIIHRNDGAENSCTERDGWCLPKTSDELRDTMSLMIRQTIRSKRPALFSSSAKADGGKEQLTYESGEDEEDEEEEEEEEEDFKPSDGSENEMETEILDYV
UniProt Q9UKN8: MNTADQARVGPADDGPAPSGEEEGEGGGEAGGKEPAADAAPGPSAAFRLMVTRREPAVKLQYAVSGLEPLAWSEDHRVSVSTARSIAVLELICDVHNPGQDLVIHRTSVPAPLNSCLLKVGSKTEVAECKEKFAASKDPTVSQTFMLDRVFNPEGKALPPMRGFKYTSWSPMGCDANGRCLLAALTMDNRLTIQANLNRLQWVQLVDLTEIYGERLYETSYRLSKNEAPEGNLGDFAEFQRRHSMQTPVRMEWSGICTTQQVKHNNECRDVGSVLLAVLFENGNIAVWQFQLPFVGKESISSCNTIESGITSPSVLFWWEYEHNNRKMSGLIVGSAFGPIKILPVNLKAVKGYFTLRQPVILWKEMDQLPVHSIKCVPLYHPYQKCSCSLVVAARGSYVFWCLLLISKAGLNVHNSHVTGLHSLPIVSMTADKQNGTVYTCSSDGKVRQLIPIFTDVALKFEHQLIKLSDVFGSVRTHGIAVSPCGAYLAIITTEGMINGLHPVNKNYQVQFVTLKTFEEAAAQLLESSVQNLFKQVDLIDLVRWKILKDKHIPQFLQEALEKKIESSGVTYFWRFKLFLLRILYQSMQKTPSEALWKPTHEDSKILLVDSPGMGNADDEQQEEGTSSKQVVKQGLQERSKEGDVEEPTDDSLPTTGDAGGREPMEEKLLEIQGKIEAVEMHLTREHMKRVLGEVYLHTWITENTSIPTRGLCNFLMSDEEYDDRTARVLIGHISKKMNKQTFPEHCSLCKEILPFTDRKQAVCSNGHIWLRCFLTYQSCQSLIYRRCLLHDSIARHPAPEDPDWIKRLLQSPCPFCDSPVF
UniProt Q12789: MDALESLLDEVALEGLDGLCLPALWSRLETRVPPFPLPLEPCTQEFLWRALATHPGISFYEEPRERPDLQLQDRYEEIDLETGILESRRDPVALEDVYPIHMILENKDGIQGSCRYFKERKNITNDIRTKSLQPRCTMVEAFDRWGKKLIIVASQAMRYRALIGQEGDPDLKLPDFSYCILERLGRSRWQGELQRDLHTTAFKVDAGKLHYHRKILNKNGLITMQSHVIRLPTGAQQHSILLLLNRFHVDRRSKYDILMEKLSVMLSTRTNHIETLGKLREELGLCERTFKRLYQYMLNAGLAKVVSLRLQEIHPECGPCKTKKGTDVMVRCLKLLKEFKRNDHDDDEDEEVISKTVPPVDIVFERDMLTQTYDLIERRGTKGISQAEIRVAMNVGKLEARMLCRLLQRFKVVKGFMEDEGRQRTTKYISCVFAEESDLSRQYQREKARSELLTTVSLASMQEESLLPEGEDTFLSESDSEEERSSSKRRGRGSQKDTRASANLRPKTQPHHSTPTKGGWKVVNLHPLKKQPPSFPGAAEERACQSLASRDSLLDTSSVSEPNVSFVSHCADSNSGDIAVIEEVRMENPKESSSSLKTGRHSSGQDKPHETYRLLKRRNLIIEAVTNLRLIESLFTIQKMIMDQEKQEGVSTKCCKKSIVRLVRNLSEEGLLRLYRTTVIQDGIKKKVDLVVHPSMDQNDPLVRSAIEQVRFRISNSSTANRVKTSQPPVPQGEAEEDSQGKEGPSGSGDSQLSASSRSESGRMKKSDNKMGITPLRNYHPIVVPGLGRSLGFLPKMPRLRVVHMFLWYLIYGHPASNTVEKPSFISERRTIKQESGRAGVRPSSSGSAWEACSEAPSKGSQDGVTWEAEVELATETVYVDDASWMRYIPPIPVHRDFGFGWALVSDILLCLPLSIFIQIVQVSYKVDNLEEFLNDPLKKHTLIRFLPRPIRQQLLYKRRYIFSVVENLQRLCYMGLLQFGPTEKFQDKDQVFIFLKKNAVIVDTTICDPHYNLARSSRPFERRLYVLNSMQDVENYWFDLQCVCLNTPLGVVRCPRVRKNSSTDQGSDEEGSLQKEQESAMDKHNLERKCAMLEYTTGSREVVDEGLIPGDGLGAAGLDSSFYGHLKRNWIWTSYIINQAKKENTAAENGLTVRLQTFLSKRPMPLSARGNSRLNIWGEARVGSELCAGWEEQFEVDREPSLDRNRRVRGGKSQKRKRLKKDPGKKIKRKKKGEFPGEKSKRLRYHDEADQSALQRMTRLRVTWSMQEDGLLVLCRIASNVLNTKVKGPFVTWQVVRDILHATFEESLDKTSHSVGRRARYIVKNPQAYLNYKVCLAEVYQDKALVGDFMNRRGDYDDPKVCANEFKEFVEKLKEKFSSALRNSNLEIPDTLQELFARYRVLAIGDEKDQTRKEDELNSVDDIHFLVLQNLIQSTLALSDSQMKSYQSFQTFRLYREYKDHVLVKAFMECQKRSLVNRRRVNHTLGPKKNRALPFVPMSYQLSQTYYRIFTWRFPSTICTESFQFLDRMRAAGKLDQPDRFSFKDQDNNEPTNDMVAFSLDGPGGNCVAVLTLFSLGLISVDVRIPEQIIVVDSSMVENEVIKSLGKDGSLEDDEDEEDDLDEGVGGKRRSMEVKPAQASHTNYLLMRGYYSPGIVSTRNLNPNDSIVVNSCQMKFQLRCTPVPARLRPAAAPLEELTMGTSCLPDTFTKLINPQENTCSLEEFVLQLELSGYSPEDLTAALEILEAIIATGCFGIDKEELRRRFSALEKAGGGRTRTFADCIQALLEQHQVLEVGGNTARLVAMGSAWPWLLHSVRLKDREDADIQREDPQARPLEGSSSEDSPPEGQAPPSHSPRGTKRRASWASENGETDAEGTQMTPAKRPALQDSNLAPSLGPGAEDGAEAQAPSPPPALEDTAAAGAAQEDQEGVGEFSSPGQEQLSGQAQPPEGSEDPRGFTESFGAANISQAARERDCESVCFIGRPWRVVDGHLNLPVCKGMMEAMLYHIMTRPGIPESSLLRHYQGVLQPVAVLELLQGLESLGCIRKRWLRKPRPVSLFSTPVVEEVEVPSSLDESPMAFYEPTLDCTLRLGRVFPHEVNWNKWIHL
UniProt Q92759: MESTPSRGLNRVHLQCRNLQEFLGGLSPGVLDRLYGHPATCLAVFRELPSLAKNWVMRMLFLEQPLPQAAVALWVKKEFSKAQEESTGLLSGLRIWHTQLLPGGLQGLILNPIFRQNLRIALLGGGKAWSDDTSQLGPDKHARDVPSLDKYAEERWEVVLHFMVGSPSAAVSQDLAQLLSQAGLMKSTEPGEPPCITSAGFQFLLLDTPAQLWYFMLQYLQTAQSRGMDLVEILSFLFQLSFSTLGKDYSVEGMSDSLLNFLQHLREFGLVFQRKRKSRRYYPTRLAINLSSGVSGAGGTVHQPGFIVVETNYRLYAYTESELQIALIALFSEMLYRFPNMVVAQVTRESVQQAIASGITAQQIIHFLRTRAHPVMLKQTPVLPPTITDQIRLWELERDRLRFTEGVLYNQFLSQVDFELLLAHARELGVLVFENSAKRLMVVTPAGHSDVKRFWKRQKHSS
UniProt Q9UBQ7: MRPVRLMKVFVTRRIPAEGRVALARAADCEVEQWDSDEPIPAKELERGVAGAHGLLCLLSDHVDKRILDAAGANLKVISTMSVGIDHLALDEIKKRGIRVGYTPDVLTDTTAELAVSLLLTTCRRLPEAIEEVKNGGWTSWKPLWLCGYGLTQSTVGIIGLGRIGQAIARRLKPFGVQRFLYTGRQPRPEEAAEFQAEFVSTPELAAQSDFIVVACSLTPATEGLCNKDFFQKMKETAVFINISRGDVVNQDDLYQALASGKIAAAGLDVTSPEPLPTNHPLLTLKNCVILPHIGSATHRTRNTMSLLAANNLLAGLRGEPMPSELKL
UniProt P15170, whole entry, looked up: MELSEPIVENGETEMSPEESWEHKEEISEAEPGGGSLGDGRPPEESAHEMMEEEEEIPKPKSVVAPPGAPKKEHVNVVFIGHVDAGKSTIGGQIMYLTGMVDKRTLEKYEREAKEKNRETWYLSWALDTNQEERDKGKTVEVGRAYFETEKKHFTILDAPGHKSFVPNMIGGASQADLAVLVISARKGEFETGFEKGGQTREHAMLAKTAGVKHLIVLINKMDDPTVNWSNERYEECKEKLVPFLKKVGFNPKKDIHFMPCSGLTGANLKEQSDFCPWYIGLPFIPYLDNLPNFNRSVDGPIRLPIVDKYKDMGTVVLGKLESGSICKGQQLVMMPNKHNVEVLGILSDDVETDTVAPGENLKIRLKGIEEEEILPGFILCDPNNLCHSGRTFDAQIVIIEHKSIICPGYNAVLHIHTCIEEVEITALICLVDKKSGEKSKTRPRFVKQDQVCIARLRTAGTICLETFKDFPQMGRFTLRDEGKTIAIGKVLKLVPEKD
UniProt P13807: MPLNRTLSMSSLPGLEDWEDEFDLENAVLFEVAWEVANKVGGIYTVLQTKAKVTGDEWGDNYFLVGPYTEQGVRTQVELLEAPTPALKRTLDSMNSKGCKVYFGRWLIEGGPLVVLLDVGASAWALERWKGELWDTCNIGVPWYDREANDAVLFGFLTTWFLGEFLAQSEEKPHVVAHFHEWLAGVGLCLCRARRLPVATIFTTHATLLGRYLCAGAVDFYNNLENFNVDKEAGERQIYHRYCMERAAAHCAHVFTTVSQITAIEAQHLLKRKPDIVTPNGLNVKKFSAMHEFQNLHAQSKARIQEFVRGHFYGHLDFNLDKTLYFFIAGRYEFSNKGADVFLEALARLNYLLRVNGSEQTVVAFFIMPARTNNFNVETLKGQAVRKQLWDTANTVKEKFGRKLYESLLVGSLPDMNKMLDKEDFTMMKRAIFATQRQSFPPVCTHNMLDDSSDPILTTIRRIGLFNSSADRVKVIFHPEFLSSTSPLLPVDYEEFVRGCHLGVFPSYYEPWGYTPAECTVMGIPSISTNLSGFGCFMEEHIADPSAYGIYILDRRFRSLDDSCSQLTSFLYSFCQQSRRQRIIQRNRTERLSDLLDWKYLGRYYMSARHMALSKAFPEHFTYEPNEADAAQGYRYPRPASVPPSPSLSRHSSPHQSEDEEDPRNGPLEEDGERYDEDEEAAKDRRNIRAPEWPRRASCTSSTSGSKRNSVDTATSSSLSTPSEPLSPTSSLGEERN

Compound: Cc1cc(ccc1-c1ccccc1)C(=O)N1CCCN(CC1)C(=O)CCl [compound 10]
Experiment: probe-labelled cysteine peptide fold change vs DMSO (competition) (log2 fold change); higher = less target engagement (more negative = stronger competition)
Settings: THP-1, incubation time: 4 h
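Also: competitive profiling in live THP-1 cells: cysteine peptides tagged with an iodoacetamide desthiobiotin (IA-DTB) probe, intensity after compound treatment relative to DMSO-treated cells.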

Target	probe-labelled cysteine peptide fold change (10 µM)	probe-labelled cysteine peptide fold change (50 µM)
H6PD_O95479_393_HWAAAQSQCLPR (UniProt O95479)	-0.203	0.0303
GPX1_P07203_49_VLLIENVASLUGTTVR (UniProt P07203)	0.118	0.123
GRPEL1_Q9HAV7_108_LYGIQAFCK (UniProt Q9HAV7)	-0.0324	0.00756
GSTM3_P21266_91_KHNMCGETEEEK (UniProt P21266)	0.0537	-0.408
GRWD1_Q9BQ67_235_LLTGDCQK (UniProt Q9BQ67)	-0.0866	-0.0575
GTF3C5_Q9Y5Q8_432_NDGAENSCTER (UniProt Q9Y5Q8)	-0.242	0.262
GTF3C4_Q9UKN8_93_SIAVLELICDVHNPGQDLVIHR (UniProt Q9UKN8)	0.223	0.287
GTF3C1_Q12789_1336_VCLAEVYQDK (UniProt Q12789)	-0.00209	0.174
GTF3C3_Q9Y5Q9_810_GPCQESFYNLGR (UniProt Q9Y5Q9)	-0.005	0.191
GTPBP6_O43824_99_VCLVHPDVK (UniProt O43824)	-0.0638	-0.214
GTF2H4_Q92759_16_VHLQCR (UniProt Q92759)	-0.106	-0.293
GSTCD_Q8NEC7_571_EHMILCR (UniProt Q8NEC7)	0.138	-0.165
GRN_P28799_533_DVECGEGHFCHDNQTCCR (UniProt P28799)	-0.112	-0.601
HAUS2_Q9NVX0_43_TVSCFVNFTR (UniProt Q9NVX0)	-0.00828	0.128
HACL1_Q9UJ83_392_DCFVVSEGANTMDIGR (UniProt Q9UJ83)	0.00675	0.136
GRB2_P62993_198_GACHGQTGMFPR (UniProt P62993)	0.097	0.0467
GRHPR_Q9UBQ7_57_GVAGAHGLLCLLSDHVDKR (UniProt Q9UBQ7)	0.0524	-0.0645
GTF2E2_P29084_208_SCQFSVDEEFQK (UniProt P29084)	-0.0167	-0.0921
GRHPR_Q9UBQ7_288_NCVILPHIGSATHR (UniProt Q9UBQ7)	0.293	0.0427
GSN_P06396_215_ATEVPVSWESFNNGDCFILDLGNNIHQWCGSNSNRYER (UniProt P06396)	-0.0107	-0.304
GPX1_P07203_156_LITWSPVCR (UniProt P07203)	0.0327	-0.0674
GRPEL2_Q8TAA5_182_LTPIGDKYDPHEHELICHVPAGVGVQPGTVALVR (UniProt Q8TAA5)	-0.125	-0.298

Random excerpt: two records from the list.
Target	probe-labelled cysteine peptide fold change (10 µM)	probe-labelled cysteine peptide fold change (50 µM)
GTF3C4_Q9UKN8_93_SIAVLELICDVHNPGQDLVIHR (UniProt Q9UKN8)	0.223	0.287
GRHPR_Q9UBQ7_288_NCVILPHIGSATHR (UniProt Q9UBQ7)	0.293	0.0427

(continued)

Target	probe-labelled cysteine peptide fold change (10 µM)	probe-labelled cysteine peptide fold change (50 µM)
GRHPR_Q9UBQ7_57_GVAGAHGLLCLLSDHVDK (UniProt Q9UBQ7)	0.0501	0.157
HARS_P12081_379_VPCVGLSIGVER (UniProt P12081)	-0.017	0.285
GTF3C1_Q12789_1999_VVDGHLNLPVCK (UniProt Q12789)	-0.0557	-0.136
HAUS6_Q7Z4H7_662_VISDCECVPQK (UniProt Q7Z4H7)	0.0385	-0.547
GTF2I_P78347_475_MVDQLFCK (UniProt P78347)	-0.213	0.51
GSPT1_P15170_387_GIEEEEILPGFILCDPNNLCHSGR (UniProt P15170)	-0.00174	0.15
GTSF1_Q8WW33_51_LATCPFNAR (UniProt Q8WW33)	0.0982	-0.65
GSKIP_Q9P0R6_59_CADDVAYINVETK (UniProt Q9P0R6)	0.169	0.0933
GTF3C4_Q9UKN8_441_QNGTVYTCSSDGK (UniProt Q9UKN8)	0.106	0.0678
H6PD_O95479_663_LCAEEDQGAQIYAR (UniProt O95479)	-0.189	0.0594
GSPT1_P15170_381+387_GIEEEEILPGFILCDPNNLCHSGR (UniProt P15170)	0.154	0.121
GTF3C2_Q8WUA4_291_QKPHCR (UniProt Q8WUA4)	-0.279	-0.824
HAUS5_O94927_446_CLEEEVR (UniProt O94927)	0.0741	-0.0311
GYS1_P13807_699_ASCTSSTSGSK (UniProt P13807)	-0.326	-0.925
H2AFY_O75367_276_FVIHCNSPVWGADKCEELLEK (UniProt O75367)	-0.198	-0.854
GYS1_P13807_214_YLCAGAVDFYNNLENFNVDK (UniProt P13807)	0.107	0.121
GRK6_P43250_57_DYHSLCER (UniProt P43250)	-0.185	-0.029
GTF2H4_Q92759_41_LYGHPATCLAVFR (UniProt Q92759)	-0.3	0.253
GTF3C5_Q9Y5Q8_26_MVCVEYPGVVR (UniProt Q9Y5Q8)	0.0288	-0.122
GTF3C4_Q9UKN8_129_TEVAECK (UniProt Q9UKN8)	-0.292	0.0341
HAUS6_Q7Z4H7_185_QDCVTQK (UniProt Q7Z4H7)	0.0481	-0.0948
